From patent US20240308988A1, “Method For Controlling Diamide Resistant Pests and Compounds Therefor” (priority 2021, published 2024)
Some results were stated once for a whole list of compounds, not compound by compound. At least one compound was matched to its structure with a doubt left.

These compounds were tested on Plutella xylostella (Diamond back moth) ryanodine receptor, containing the G4946E resistance mutation (assay: In vitro calcium fluorescence assay (Fluo-8 NW, FDSS) in human embryonic kidney cells expressing the ryanodine receptor). Details: G4946E RyR in HEK cells; normalised to cyantraniliprole.
Format: cell-based
Description: Human embryonic kidney cells expressing the Plutella xylostella (Diamond back moth) ryanodine receptor, containing the G4946E resistance mutation, are loaded with Fluo-8 No Wash (NW) calcium-sensitive dye which responds by fluorescence to a change in intracellular calcium (e.g. stimulated by activation of ryanodine receptor). Test compounds are added in 10 rates to a 384-well plate containing dye-loaded cells and the fluorescent signal is measured using the Hamamatsu FDSS (Functional Drug Screening system). Dose-response curves are plotted to estimate the EC50. EC50 are normalized against an in-assay reference standard (cyantraniliprole) to address inter-assay variability. The ratio for a given compound is then obtained by the following formula:
REC50=EC50 (compound)/EC50 (cyantraniliprole).

| Structure (SMILES) | ratio REC50 = EC50 (compound)/EC50 (cyantraniliprole) |
| --- | --- |
| Cc1cc(Cl)cc(C(N)=O)c1NC(=O)c1cc(Cn2nnc(C(F)(F)F)n2)nn1-c1ncccc1Cl [Compound P18, N-(2-carbamoyl-4-chloro-6-methyl-phenyl)-2-(3-chloro-2-pyridyl)-5-[[5-(trifluoromethyl)tetrazol-2-yl]methyl] pyrazole-3-carboxamide] | ≤ 1 |
| COc1cc(C(=O)Nc2c(Br)cc(Cl)cc2C(N)=O)n(-c2ncccc2Cl)n1 [Compound P55, N-(2-bromo-6-carbamoyl-4-chloro-phenyl)-2-(3-chloro-2-pyridyl)-5-methoxy-pyrazole-3-carboxamide] | ≤ 1 |
| Cc1cc(Cl)cc(C(N)=O)c1NC(=O)c1cc(Cn2nnc(-c3ccccc3)n2)nn1-c1ncccc1Cl [Compound P105, N-(2-carbamoyl-4-chloro-6-methyl-phenyl)-2-(3-chloro-2-pyridyl)-5-[(5-phenyltetrazol-2-yl)methyl] pyrazole-3-carboxamide] | ≤ 1 |
| COc1cc(C(=O)Nc2c(C)cc(Br)cc2C(N)=O)n(-c2ncccc2Cl)n1 [Compound P45, N-(4-bromo-2-carbamoyl-6-methyl-phenyl)-2-(3-chloro-2-pyridyl)-5-methoxy-pyrazole-3-carboxamide] | ≤ 1 |
| Cc1cc(I)cc(C(N)=O)c1NC(=O)c1cc(C(F)(F)F)nn1-c1ncccc1Cl [Compound P27, N-(2-carbamoyl-4-iodo-6-methyl-phenyl)-2-(3-chloro-2-pyridyl)-5-(trifluoromethyl)pyrazole-3-carboxamide] | ≤ 1 |
| CCc1cc(C(=O)Nc2c(C)cc(Cl)cc2C(N)=O)n(-c2ncccc2Cl)n1 [Compound P75, N-(2-carbamoyl-4-chloro-6-methyl-phenyl)-2-(3-chloro-2-pyridyl)-5-ethyl-pyrazole-3-carboxamide] | ≤ 1 |
| Cc1cc(Cl)cc(C(N)=O)c1NC(=O)c1cc(Cn2nnc(-c3cccc(Cl)c3Cl)n2)nn1-c1ncccc1Cl [Compound P92, N-(2-carbamoyl-4-chloro-6-methyl-phenyl)-2-(3-chloro-2-pyridyl)-5-[[5-(2,3-dichlorophenyl)tetrazol-2-yl]methyl]pyrazole-3-carboxamide] | ≤ 1 |
| Cc1cc(Cl)cc(C(N)=O)c1NC(=O)c1cc(C2(C#N)CC2)nn1-c1ncccc1Cl [Compound P72, N-(2-carbamoyl-4-chloro-6-methyl-phenyl)-2-(3-chloro-2-pyridyl)-5-(1-cyanocyclopropyl)pyrazole-3-carboxamide] | ≤ 1 |
| Cc1cc(C#N)cc(C(N)=O)c1NC(=O)c1cc(Br)nn1-c1ncccc1Cl [Compound P30, 5-bromo-N-(2-carbamoyl-4-cyano-6-methyl-phenyl)-2-(3-chloro-2-pyridyl) pyrazole-3-carboxamide] | ≤ 1 |
| NC(=O)c1cc(Br)cc(Cl)c1NC(=O)c1cc(I)nn1-c1ncccc1Cl [Compound P36, N-(4-bromo-2-carbamoyl-6-chloro-phenyl)-2-(3-chloro-2-pyridyl)-5-iodo-pyrazole-3-carboxamide] | ≤ 1 |
| NC(=O)c1cc(I)cc(Cl)c1NC(=O)c1cc(C(F)(F)F)nn1-c1ncccc1Cl [Compound P60, N-(2-carbamoyl-6-chloro-4-iodo-phenyl)-2-(3-chloro-2-pyridyl)-5-(trifluoromethyl)pyrazole-3-carboxamide] | ≤ 1 |
| Cc1cc(I)cc(C(N)=O)c1NC(=O)c1cc(OCC(F)(F)F)nn1-c1ncccc1Cl [Compound P11, N-(2-carbamoyl-4-iodo-6-methyl-phenyl)-2-(3-chloro-2-pyridyl)-5-(2,2,2-trifluoroethoxy)pyrazole-3-carboxamide] | ≤ 1 |
| Cc1cc(Cl)cc(C(N)=O)c1NC(=O)c1cc(Br)nn1-c1ncccc1Cl [Compound P24, 5-bromo-N-(2-carbamoyl-4-chloro-6-methyl-phenyl)-2-(3-chloro-2-pyridyl)pyrazole-3-carboxamide] | ≤ 1 |
| NC(=O)c1cc(Cl)cc(Br)c1NC(=O)c1cc(Br)nn1-c1ncccc1Cl [Compound P34, 5-bromo-N-(2-bromo-6-carbamoyl-4-chloro-phenyl)-2-(3-chloro-2-pyridyl) pyrazole-3-carboxamide] | ≤ 1 |
| Cc1cc(Cl)cc(C(N)=O)c1NC(=O)c1cc(Cn2cc3c(Cl)cccc3n2)nn1-c1ncccc1Cl [Compound P4, N-(2-carbamoyl-4-chloro-6-methyl-phenyl)-5-[(4-chloroindazol-2-yl)methyl]-2-(3-chloro-2-pyridyl) pyrazole-3-carboxamide] | ≤ 1 |
| Cc1cc(Cl)cc(C(N)=O)c1NC(=O)c1cc(Cn2nnc3ccc(Cl)cc32)nn1-c1ncccc1Cl [Compound P16, N-(2-carbamoyl-4chloro-6-methyl-phenyl)-5-[(6-chlorobenzotriazol-1-yl)methyl]-2-(3chloro-2-pyridyl)pyrazole-3-carboxamide] | ≤ 1 |
| NC(=O)c1cc(Cl)cc(Cl)c1NC(=O)c1cc(Br)nn1-c1ncc(Cl)cc1Cl [Compound P33, 5-bromo-N-(2-carbamoyl-4,6-dichloro-phenyl)-2-(3,5-dichloro-2-pyridyl) pyrazole-3-carboxamide] | ≤ 1 |
| Cc1cc(Cl)cc(C(N)=O)c1NC(=O)c1cc(C(F)F)nn1-c1ncccc1Cl [Compound P22, N-(2-carbamoyl-4-chloro-6-methyl-phenyl)-2-(3-chloro-2-pyridyl)-5-(difluoromethyl)pyrazole-3-carboxamide] | ≤ 1 |
| Cc1cc(C#N)cc(C(N)=O)c1NC(=O)c1cc(Cn2nnc(-c3ccc(C(F)(F)F)cc3)n2)nn1-c1ncccc1Cl [Compound P67, N-(2-carbamoyl-4-cyano-6-methyl-phenyl)-2-(3-chloro-2-pyridyl)-5-[[5-[4-(trifluoromethyl)phenyl]tetrazol-2-yl]methyl]pyrazole-3-carboxamide] | ≤ 1 |
| Cc1cccc(-c2nnn(Cc3cc(C(=O)Nc4c(C)cc(Cl)cc4C(N)=O)n(-c4ncccc4Cl)n3)n2)c1 [Compound P93, N-(2-carbamoyl-4-chloro-6-methyl-phenyl)-2-(3-chloro-2-pyridyl)-5-[[5-(m-tolyl)tetrazol-2-yl]methyl]pyrazole-3-carboxamide] | ≤ 1 |
| Cc1cc(Cl)cc(C(N)=O)c1NC(=O)c1cc(Cn2nnc(-c3ccccc3C(F)(F)F)n2)nn1-c1ncccc1Cl [Compound P90, N-(2-carbamoyl-4-chloro-6-methyl-phenyl)-2-(3-chloro-2-pyridyl)-5-[[5-[2-(trifluoromethyl)phenyl]tetrazol-2-yl]methyl]pyrazole-3-carboxamide] | ≤ 1 |
| Cc1cc(Cl)cc(C(N)=O)c1NC(=O)c1cc(OCC(F)(F)F)nn1-c1ncccc1Cl [Compound P23, N-(2-carbamoyl-4-chloro-6-methyl-phenyl)-2-(3-chloro-2-pyridyl)-5-(2,2,2-trifluoroethoxy)pyrazole-3-carboxamide] | ≤ 1 |

These compounds were tested on Resistant Plutella xylostella R1 (multi-resistant larvae having the G4946E resistance mutation) (assay: Resistant Plutella xylostella R1 (Diamond back moth) larvicide L3, feeding/contact, sprayed Chinese cabbage leaves). Details: at 50 ppm or below, mortality and growth regulation assessed 4 days after infestation.
Format: in vivo
Description: Resistant Plutella xylostella R1 (Diamond back moth) larvicide L3, feeding/contact Chinese cabbage plants were sprayed with diluted test solutions in an application chamber. Cut off leaves were placed into petri dishes with wetted filter paper and infested 1 day after application with 10 L3 multi-resistant Plutella xylostella larvae having the G4946E resistance mutation.
Samples were assessed 4 days after infestation for mortality and growth regulation.
Chlorantraniliprole was used as standard and a resistance factor of 146 was obtained for this strain.
Plutella xylostella resistant strain R1 originally collected from Taiwan in 2012 that carries the RyR mutation G4946E conferring resistance to diamides. The strain is reared on cabbage plants (Brassica aleracea) and selected approximately every two weeks with chlorantraniliprole.

| Structure (SMILES) | control of the resistant strain of Plutella xylostella R1 |
| --- | --- |
| Cc1cc(Cl)cc(C(N)=O)c1NC(=O)c1cc(Cn2nnc(C(F)(F)F)n2)nn1-c1ncccc1Cl [Compound P18, N-(2-carbamoyl-4-chloro-6-methyl-phenyl)-2-(3-chloro-2-pyridyl)-5-[[5-(trifluoromethyl)tetrazol-2-yl]methyl] pyrazole-3-carboxamide] | at least 80% |

Each compound was assayed on Resistant Plutella xylostella R4 (carries the RyR mutation G4946E) (assay: Resistant Plutella xylostella R4 (Diamond back moth) larvicide L1, feeding/contact, artificial diet in 24-well plates). Details: at 50 ppm or below, mortality vs untreated 8 days after infestation.
Format: in vivo
Description: Resistant Plutella xylostella R4 (Diamond back moth) larvicide L1, feeding/contact 24-well microtiter plates with artificial diet were treated with aqueous test solutions prepared from 10′000 ppm DMSO stock solutions by pipetting. After drying, around 30 Plutella eggs were pipetted through a plastic stencil onto a gel blotting paper and the plate was closed with it. The samples were assessed for mortality in comparison to untreated samples 8 days after infestation.
Chlorantraniliprole was used as standard and a resistance factor of 242 was obtained for this strain
Plutella xylostella resistant strain R4 originated in the lab in 2021 from crossing the R1 strain with a lab-reared susceptible P. xylostella strain (SUS). R4 can be reared and tested on artificial diet and also carries the RyR mutation G4946E conferring resistance to diamides. The strain is selected approximately every two weeks with chlorantraniliprole. The following compounds, according to the present invention, gave at least 80% control of the resistant strain of Plutella xylostella R4 at 50 ppm or below: P11, P18, P26, P31, P33, P34, P36, P38, P42, P43, P46, P49, P50, P52, P56, P58, P60, P61, P63, P64, P65, P66, P67, P73, P76, P84, P97, P99, P102, P105.

| Structure (SMILES) | control of the resistant strain of Plutella xylostella R4 |
| --- | --- |
| Cc1cc(Cl)cc(C(N)=O)c1NC(=O)c1cc(Cn2nnc(C(F)(F)F)n2)nn1-c1ncccc1Cl [Compound P18, N-(2-carbamoyl-4-chloro-6-methyl-phenyl)-2-(3-chloro-2-pyridyl)-5-[[5-(trifluoromethyl)tetrazol-2-yl]methyl] pyrazole-3-carboxamide] | at least 80% |
